Experimental data from US4232008A (Ortho Pharmaceutical Corporation, priority 1978, dated 1980).
Some peptides are written in HELM: one residue between dots, names in brackets for other building blocks, links after the first $.

Assay: Boc solid-phase peptide synthesis; chloromethylated resin; dicyclohexyl carbodiimide
Details: whole synthesis, scale 2 mmol

With PEPTIDE1{A.K.S.Q}$$$$V2.0 as the substance, how does the “final purity (method not given)” value read?
The value was 94% pure.
